Data as given in article PMC8625561.
No constants are given. Whether binding was seen depends on the method and setting. In cells and extracts the contact can be indirect. Some entries that bind do so weakly or less than the wild type.

Protein sequences, listed by entry. Tags and fused reporters are not part of them.
UniProt P10275: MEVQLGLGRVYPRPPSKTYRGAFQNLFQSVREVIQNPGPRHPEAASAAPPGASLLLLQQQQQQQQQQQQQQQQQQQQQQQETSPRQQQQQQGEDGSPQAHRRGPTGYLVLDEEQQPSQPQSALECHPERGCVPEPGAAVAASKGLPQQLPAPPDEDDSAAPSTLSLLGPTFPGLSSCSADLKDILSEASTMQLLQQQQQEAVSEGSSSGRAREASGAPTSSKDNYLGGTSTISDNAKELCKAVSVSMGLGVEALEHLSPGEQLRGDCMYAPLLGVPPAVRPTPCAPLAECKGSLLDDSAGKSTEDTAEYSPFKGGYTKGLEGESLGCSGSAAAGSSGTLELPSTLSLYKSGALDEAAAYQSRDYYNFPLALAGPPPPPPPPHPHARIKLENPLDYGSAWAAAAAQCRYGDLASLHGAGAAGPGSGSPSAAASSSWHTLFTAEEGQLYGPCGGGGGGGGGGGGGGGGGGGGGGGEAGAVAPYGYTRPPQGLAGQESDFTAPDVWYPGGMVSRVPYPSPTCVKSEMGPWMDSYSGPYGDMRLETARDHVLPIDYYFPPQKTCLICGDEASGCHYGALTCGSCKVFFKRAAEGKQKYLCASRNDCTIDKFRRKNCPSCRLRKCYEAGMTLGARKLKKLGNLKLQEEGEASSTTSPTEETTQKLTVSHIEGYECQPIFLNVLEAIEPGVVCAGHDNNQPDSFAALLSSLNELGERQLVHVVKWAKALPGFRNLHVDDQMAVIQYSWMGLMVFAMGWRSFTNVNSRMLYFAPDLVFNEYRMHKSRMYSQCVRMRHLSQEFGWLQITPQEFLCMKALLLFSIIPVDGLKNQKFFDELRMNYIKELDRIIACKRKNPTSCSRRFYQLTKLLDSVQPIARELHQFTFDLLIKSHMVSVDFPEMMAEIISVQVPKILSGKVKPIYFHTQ

Biological target: androgen receptor (human (endogenous in LNCaP)) (UniProt P10275)
Assay: co-IP; LNCaP cells lysed with 0.1% NP40; AR antibody added to the lysate overnight at 4 °C, protein A or protein G agarose beads, Western blotting; Input and IgG as controls

binding: binds
B1: NONO (protein, UniProt Q15233 1-471)
chain: MQSNKTFNLEKQNHTPRKHHQHHHQQQHHQQQQQQPPPPPIPANGQQASSQNEGLTIDLKNFRKPGEKTFTQRSRLFVGNLPPDITEEEMRKLFEKYGKAGEVFIHKDKGFGFIRLETRTLAEIAKVELDNMPLRGKQLRVRFACHSASLTVRNLPQYVSNELLEEAFSVFGQVERAVVIVDDRGRPSGKGIVEFSGKPAARKALDRCSEGSFLLTTFPRPVTVEPMDQLDDEEGLPEKLVIKNQQFHKEREQPPRFAQPGSFEYEYAMRWKALIEMEKQQQDQVDRNIKEAREKLEMEMEAARHEHQVMLMRQDLMRRQEELRRMEELHNQEVQKRKQLELRQEEERRRREEEMRRQQEEMMRRQQEGFKGTFPDAREQEIRMGQMAMGGAMGINNRGAMPPAPVPAGTPAPPGPATMMPDGTLGLTPPTTERFGQAATMEGIGAIGGTPPAFNRAAPGAEFAPNKRRRY
